# Experimental data as given in PubChem BioAssay AID214 (DTP/NCI, 2004).
# The list is a part of this screen's results and no random one: it gathers some chemical classes. Other doses and runs of a compound may be missing. T/C is the treated group as % of the vehicle group. Schedules are NCI's codes, read here as Q, the interval in days (D) or hours (H), X, the number of doses. Some entries show no survivor count and are marked so; the dose need not have been tolerated.
# Test system: B6C3F1 mice, colon carcinoma 38 s.c., T/C
# Test: NCI In Vivo Anticancer Drug Screen. Data for tumor model Colon Carcinoma 38 (subcutaneous) in B6C3F1 mice
# Conditions: T/C endpoint: median tumor weight (est.), schedule: Q07DX002 (ip), vehicle: Klucel (hydroxypropylcellulose) (HPC), evaluated on day 20, higher T/C = larger tumour
# Procedure: The antitumor activity of compounds was measured in mice bearing transplantable tumors. Survival or tumor size were measured and the results are expressed as the measurement made in the treated group (T) divided by the measurement made in the vehicle treated control group (C). The tumor model used in this assay is Colon Carcinoma 38 (subcutaneous) in B6C3F1 mice
smiles,measurement,setting,value
CC1=C[C@H]2O[C@@H]3C[C@H]4OC(=O)/C=C\C=C\C(C(C)O)OCC(O)C(C)CC(=O)OC[C@@]2(C[C@@H]1O)[C@]4(C)[C@@]31CO1 (some centres undefined),T/C,dose: 0.5 mg/kg/injection,89 % of control [survivor count not shown]
same,T/C,dose: 1.0 mg/kg/injection,109 % of control [survivor count not shown]
same,T/C,dose: 2.0 mg/kg/injection,103 % of control [survivor count not shown]
same,T/C,dose: 4.0 mg/kg/injection,94 % of control [survivor count not shown]
